Test results: PMC5996148
Some of the results follow. For some assays here: Construct or isoform of the protein are uncertain.

Chains of the proteins cited; added tags and fusions are not shown. Lines headed by an entry give the natural chain unless they say otherwise; changes in a name come on top.
UniProt Q9Y617: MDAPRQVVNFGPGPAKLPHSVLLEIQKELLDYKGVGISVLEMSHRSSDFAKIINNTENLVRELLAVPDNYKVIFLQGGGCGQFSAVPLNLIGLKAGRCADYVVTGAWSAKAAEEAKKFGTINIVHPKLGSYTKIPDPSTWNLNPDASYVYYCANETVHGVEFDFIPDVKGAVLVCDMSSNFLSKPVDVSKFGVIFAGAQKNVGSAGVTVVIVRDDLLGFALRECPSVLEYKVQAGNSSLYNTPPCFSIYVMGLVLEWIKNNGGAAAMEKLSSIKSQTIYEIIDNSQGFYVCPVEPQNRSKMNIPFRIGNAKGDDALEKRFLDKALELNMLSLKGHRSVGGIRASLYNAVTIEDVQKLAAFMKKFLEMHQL

Key:
Test in all cases: protein microarray (ProtoArray v5.0), streptavidin-Alexa Fluor 647
Details in all cases: 3'-biotin; 20 mM Tris (pH 7.5), 5 mM MgCl2, 100 mM KCl, 0.1% Tween-20, A/T-rich and random oligonucleotide blockers; temperature not stated; high values mean tight binding
PPP2R2C (human) = tested on: PPP2R2C (human)
PPP3R2 (human) = tested on: PPP3R2 (human)
PPT1 = target: T1, PPT1 (UniProt P50897)
T1 sequence: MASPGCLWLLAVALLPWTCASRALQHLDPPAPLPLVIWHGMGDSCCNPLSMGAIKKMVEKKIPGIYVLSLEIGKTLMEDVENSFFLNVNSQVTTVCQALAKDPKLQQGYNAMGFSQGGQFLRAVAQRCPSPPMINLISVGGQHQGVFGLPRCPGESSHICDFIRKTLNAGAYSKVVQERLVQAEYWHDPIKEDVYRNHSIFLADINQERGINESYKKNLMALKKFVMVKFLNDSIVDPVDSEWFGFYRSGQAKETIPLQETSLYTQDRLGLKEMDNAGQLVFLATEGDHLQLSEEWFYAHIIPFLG

PPT2 (human) = tested on: PPT2 (human)
PRCP (human) = tested on: PRCP (human)
PRDX2 (human) = tested on: PRDX2 (human)
PRDX3 (human) = tested on: PRDX3 (human)
[1] = tested on: PRELI domain-containing protein 2 (human)
PRELID1 (human) = tested on: PRELID1 (human)
PRKACB (human) = tested on: PRKACB (human)
PRMT7 (human) = tested on: PRMT7 (human)
PROCR (human) = tested on: PROCR (human)
PRPSAP2 (human) = tested on: PRPSAP2 (human)
PRRG2 = target: T2, PRRG2 (UniProt O14669)
T2 sequence: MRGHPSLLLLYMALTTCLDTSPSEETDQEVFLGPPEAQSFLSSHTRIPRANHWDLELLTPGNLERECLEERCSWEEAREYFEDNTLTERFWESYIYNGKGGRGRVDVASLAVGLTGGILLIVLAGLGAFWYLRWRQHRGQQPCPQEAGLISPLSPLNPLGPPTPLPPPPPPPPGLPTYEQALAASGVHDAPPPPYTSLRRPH

PRRT2 (human) = tested on: PRRT2 (human)
PSAT1 = PSAT1 (UniProt Q9Y617)
PSCD4 (human) = tested on: PSCD4 (human)
PSG11 (human) = tested on: PSG11 (human)
PSMA4 (human) = tested on: PSMA4 (human)
PSMA5 (human) = tested on: PSMA5 (human)

GGTGACAGGGGTATGGGGAGGGG [G4-2 biotinylated (Ct1)]
binding signal (PPP2R2C (human)): -0.377 z-score | binding signal (PPP3R2 (human)): -0.377 z-score | binding signal (PPT1): -0.381 z-score | binding signal (PPT2 (human)): -0.387 z-score | binding signal (PRCP (human)): -0.377 z-score | binding signal (PRDX2 (human)): -0.399 z-score | binding signal (PRDX3 (human)): -0.395 z-score | binding signal [1]: -0.385 z-score | binding signal (PRELID1 (human)): -0.378 z-score | binding signal (PRKACB (human)): -0.378 z-score | binding signal (PRMT7 (human)): -0.395 z-score | binding signal (PROCR (human)): -0.37 z-score | binding signal (PRPSAP2 (human)): -0.365 z-score | binding signal (PRRG2): -0.386 z-score | binding signal (PRRT2 (human)): -0.373 z-score | binding signal (PSAT1): -0.389 z-score | binding signal (PSCD4 (human)): -0.364 z-score | binding signal (PSG11 (human)): -0.386 z-score | binding signal (PSMA4 (human)): -0.387 z-score | binding signal (PSMA5 (human)): -0.38 z-score
